Among all 390,000 compounds or so, about 610 (0.16%) were called active. The inconclusive results got no clear call from the source; some entries with a clear call stand among them for comparison. Calls come from the whole dose curve; as a rule, active = well fitted inhibition curve with a large enough effect; inconclusive = small, poorly fitted or top-dose-only effect, or effect the other way, or another doubt; inactive = no such curve, though single readings can be large or run the other way. Potencies of inconclusive entries are doubtful fits and often do not repeat.
Test: Nrf2 qHTS screen for inhibitors: counterscreen for cytotoxicity
Details: A549 ARE-Fluc cells, CellTiter-Fluor viability, 18-24 h; series mostly up to 46 µM
Summary of the method: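 Cytotoxicity counterscreen: CellTiter-Fluor fluorescence was measured in A549 ARE_Fluc cells after 18-24 h of compound exposure in a concentration series. The subsequent BugLite luminescent read reports ARE-luciferase activity.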
With `Cc1ccccc1-n1c(CSC(=N)N)nc2ccccc2c1=O` the Potency was “inactive”.
With `COc1ccccc1CNc1ncnc2sccc12` the Potency was “inactive”.
With `CCc1ccc(-c2cc3c(=O)n(CC(=O)NCCCN4CCN(C)CC4)ncn3n2)cc1` the Potency was inconclusive: 6.51 µM [falling, full curve, poor fit].
With `COc1ccc(CCNC(=O)CSc2cn(CCNC(=O)c3cccc(C(F)(F)F)c3)c3ccccc23)cc1OC` the Potency was inconclusive: 29.1 µM [falling, single point].
For `O=C(C1CC1)N1CCN(Cc2ccccc2)CC1`, the Potency was “inactive”.
With `CCCCSc1nc(N)c(C#N)c(-c2cccs2)c1C#N` the Potency was inconclusive: 18.4 µM [falling, partial curve].
In the case of `COc1ccc(OC)c(N(CC(=O)NCCSCc2ccc(C)cc2)S(C)(=O)=O)c1`, the Potency is reported as inconclusive: 16.4 µM [falling, single point].
For `COc1ccc2oc(C(=O)OCc3c(C)noc3C)c(C)c2c1`, the Potency was inconclusive: 4.11 µM [activator, partial curve, poor fit].
For `CCN(CC)S(=O)(=O)c1ccc(NC(=O)Nc2cccc(C(F)(F)F)c2)cc1`, the Potency was inconclusive: 23.1 µM [falling, partial curve, poor fit].
In the case of `CCC1(C)CC(c2nc(-c3ccc(OC)cc3)cs2)CCS1` (stereo not drawn), the Potency is reported as inconclusive: 32.6 µM [activator, partial curve, poor fit].
With `CCOc1ccccc1CNC(=O)c1ccc(N2Cc3ccccc3Oc3ncccc32)s1` the Potency was “inactive”.
With `Cc1ccc(-c2nc3ncccn3c2Nc2ccc3c(c2)OCCO3)o1` the Potency was “inactive”.
In the case of `CCOc1ccc(C(=O)CCC(=O)N(CC)CC(=O)NCc2cccs2)cc1`, the Potency is reported as “inactive”.
In the case of `CCOc1ccc2nc(N3CCC(C(=O)Nc4ccccc4CC)CC3)sc2c1`, the Potency is reported as inconclusive: 18.4 µM [falling, partial curve, poor fit].
With `Cc1oc(/N=C/c2ccc(Cl)cc2)c(C#N)c1C` the Potency was inconclusive: 23.1 µM [activator, partial curve, poor fit].
For `CSc1cccc(Nc2cc(C(=O)NCCc3ccc(Cl)cc3)c3ccccc3n2)c1`, the Potency was inconclusive: 25.9 µM [falling, single point].
With `CCS(=O)(=O)c1ncc(Cl)c(C(=O)Nc2ccc(S(=O)(=O)N3CCC(C)CC3)cc2)n1` the Potency was inconclusive: 29.1 µM [falling, single point].
In the case of `O=C1CCCc2cc(S(=O)(=O)N3CCCC(C(=O)Nc4ccc(F)c(Cl)c4)C3)ccc2N1` (stereo not drawn), the Potency is reported as inconclusive: 20.6 µM [falling, partial curve, poor fit].
With `O=[N+]([O-])c1ccc(N/N=C/c2ccc[nH]2)cc1` the Potency was inconclusive: 16.4 µM [falling, partial curve, poor fit].
In the case of `CSC1=NSC2=NC(=O)/C(=C\c3cccs3)C(=N)N12`, the Potency is reported as inconclusive: 20.6 µM [falling, partial curve, poor fit].
In the case of `Cc1cc(/C=C2\SC(=S)N(C)C2=O)c(C)n1-c1ccccc1O`, the Potency is reported as inconclusive: 23.1 µM [falling, single point].
For `CC1CCN(c2ccc(NC(=S)NC(=O)c3ccc(-c4cccc([N+](=O)[O-])c4)o3)cc2)CC1`, the Potency was “inactive”.
For `COc1ccc(N2C(=O)c3ccccc3NC2c2ccc(OC)c(COc3ccccn3)c2)cc1` (stereo not drawn), the Potency was “inactive”.
With `O=C(NCCN1CCOCC1)c1cccc2c1C(=O)c1ccc(N3CCCC3)cc1S2(=O)=O` the Potency was inconclusive: 29.1 µM [falling, single point].
With `CCOC(=O)C1=C(C)N=c2s/c(=C/c3ccc(OCC(=O)O)cc3)c(=O)n2C1c1cc(OC)c(OC)c(OC)c1` (stereo not drawn) the Potency was inconclusive: 18.4 µM [falling, partial curve, poor fit].
In the case of `C=CCc1cccc(CNc2nc3ccccc3n2CCC)c1O`, the Potency is reported as inconclusive: 29.1 µM [falling, single point].
For `NNC(=O)Nc1cccc(C(F)(F)F)c1`, the Potency was “inactive”.
In the case of `Cc1cc(Nc2cccc(Cl)c2)c2ccccc2n1`, the Potency is reported as inconclusive: 18.4 µM [falling, single point].
In the case of `CCOC(=O)/C(C#N)=C\C1=C(N2CCCC2)CC(C)(C)OC1`, the Potency is reported as inconclusive: 18.4 µM [falling, single point].
With `CC(=O)Nc1ccc(NC(=O)C(=O)c2cn(CC(=O)N3CCCCC3)c3ccccc23)cc1` the Potency was inconclusive: 25.9 µM [falling, single point].
With `Cn1nnnc1Sc1ncnc2scc(-c3ccc4ccccc4c3)c12` the Potency was inconclusive: 29.1 µM [falling, single point].
For `COc1cccc(NC(=O)CSCc2cc(=O)c3ccc(C)c(C)c3[nH]2)c1`, the Potency was “inactive”.
In the case of `CC(=O)N1CCN(c2ccc([N+](=O)[O-])c(-n3nc(C)cc3C)c2)CC1`, the Potency is reported as inconclusive: 20.6 µM [falling, partial curve, poor fit].
In the case of `O=C(CSc1nc2ccc(Cl)cc2[nH]1)NC1CCCc2ccccc21` (stereo not drawn), the Potency is reported as inconclusive: 25.9 µM [falling, partial curve, poor fit].
For `Cn1c(=O)c2c(n3c4ccccc4nc13)NC(=O)CC2c1cccc(F)c1` (stereo not drawn), the Potency was inconclusive: 14.6 µM [falling, partial curve, poor fit].
For `COc1cccc2cc(C(=O)C3=C(O)C(=O)N(c4cc(C)on4)C3c3cccs3)oc12` (stereo not drawn), the Potency was inconclusive: 16.4 µM [falling, single point].
With `O=C(CCl)NCCCN(C(=O)C(Cl)Cl)c1ccc([N+](=O)[O-])cc1` the Potency was inconclusive: 20.6 µM [falling, single point].
For `Cc1ccc2nc(-c3ccncc3)cc(C(=O)Nc3ccc(OC(F)F)cc3)c2c1`, the Potency was inconclusive: 3.66 µM [falling, single point].
For `CC(C)(C)c1ccc(Cn2c(=O)cnc3ccccc32)cc1`, the Potency was “inactive”.
With `CC(C)Oc1cccc(C(=O)Nc2ccc3oc(-c4cccc(Cl)c4)nc3c2)c1` the Potency was “inactive”.
With `COc1cc(C#Cc2c(-c3cncn3C)n(C)c3ccc(-c4cc(OC)c(OC)c(OC)c4)cc23)cc(OC)c1` the Potency was “inactive”.
For `CCOCCCn1c(=N)c(C(=O)NCc2ccco2)cc2c(=O)n3ccccc3nc21`, the Potency was inconclusive: 18.4 µM [falling, partial curve, poor fit].
In the case of `Cn1c(CCN2CCN(c3ccccn3)CC2)nc2cc(NC(=O)COc3ccc(Cl)cc3)ccc21`, the Potency is reported as inconclusive: 29.1 µM [falling, single point].
With `CCn1ccnc1CNCc1ccc(OCC(O)CN(C)Cc2ccccc2)cc1` (stereo not drawn) the Potency was inconclusive: 2.91 µM [falling, partial curve, poor fit].
For `CCOc1cc(N(CC)CC)ccc1/C=C(/C#N)c1nc2ccccc2[nH]1`, the Potency was inconclusive: 14.6 µM [falling, partial curve].
In the case of `Cc1ccc(Cl)cc1N1CCN(CCCNc2ncnc3onc(-c4ccc(F)cc4)c23)CC1`, the Potency is reported as inconclusive: 16.4 µM [falling, partial curve, poor fit].
For `CCOC(=O)c1sc2nc(C)cc(-c3ccccc3)c2c1N`, the Potency was inconclusive: 11.6 µM [activator, partial curve, poor fit].
In the case of `Cc1cc(Nc2sc(C(=O)c3ccc(F)cc3)c(N)c2C(=O)Nc2ccc(F)cc2)ccc1Cl`, the Potency is reported as active: 16.4 µM.
With `CCOc1ccc(S(=O)(=O)N2CCN(C(=O)Cc3n[nH]c(=O)c4ccccc34)CC2)cc1` the Potency was inconclusive: 25.9 µM [activator, partial curve, poor fit].
In the case of `Cc1ccc(F)c(C2C3C=CCCC3(C)C(=O)N2Cc2ccccc2)c1` (stereo not drawn), the Potency is reported as inconclusive: 16.4 µM [falling, single point].
For `Cc1nc(Nc2ccccc2Br)c2nnn(Cc3ccccc3)c2n1`, the Potency was inconclusive: 0.103 µM [activator, full curve, poor fit].
In the case of `CC1=CC(C)(C)N2C(=O)C(=Nc3ccc(O)cc3)c3cccc1c32`, the Potency is reported as inconclusive: 23.1 µM [falling, partial curve, poor fit].
With `Cc1ccc(C)c(N=Nc2nc3ccccc3n2C)c1` the Potency was inconclusive: 25.9 µM [falling, single point].
In the case of `CCN(CCCNC(=O)c1cc2cc3cc(OC)ccc3nc2s1)c1cccc(C)c1`, the Potency is reported as “inactive”.
For `CC1=C(c2ccc(C)cc2)S(=O)(=O)N=C1N1CCN(c2ccccc2)CC1`, the Potency was “inactive”.
In the case of `O=C(c1ccccc1F)N1CCC(N2CCCCCC2)CC1`, the Potency is reported as inconclusive: 3.66 µM [activator, partial curve, poor fit].
In the case of `CC(C)(C)OC(=O)NCCCC[C@H](NC(=O)c1nc[nH]c1C(=O)NC1CCN(C(=O)OC(C)(C)C)CC1)C(=O)OC(C)(C)C`, the Potency is reported as inconclusive: 16.4 µM [falling, single point].
For `CCCC1(C(=O)OC)NC(c2ccc(OC)c(OC)c2)C2C(=O)N(c3ccc4c(c3)OCO4)C(=O)C21` (stereo not drawn), the Potency was inconclusive: 32.6 µM [activator, partial curve, poor fit].
For `C=CCn1c(O)c(N=NC(=S)Nc2ccccc2F)c2ccccc21`, the Potency was inconclusive: 29.1 µM [falling, partial curve, poor fit].
With `Nc1nc(-c2ccccc2)c(N=Nc2cccnc2)s1` the Potency was inconclusive: 23.1 µM [falling, single point].
For `O=C(NNc1c2ccccc2nc2ccccc12)C(O)c1ccccc1` (stereo not drawn), the Potency was inconclusive: 16.4 µM [falling, single point].
With `Cc1ccc(C(=O)N2CCc3cc4c(cc3C2C)OCCCO4)cc1` (stereo not drawn) the Potency was inconclusive: 6.51 µM [activator, partial curve, poor fit].
In the case of `Cc1c(C(=O)O)cccc1-c1ccc(/C=C2/NC(=O)N(c3ccccc3)C2=O)o1`, the Potency is reported as inconclusive: 18.4 µM [falling, partial curve, poor fit].

Source: PubChem BioAssay AID504648 (National Center for Advancing Translational Sciences (NCATS), 2011)
Potency is the fitted concentration of half-maximal effect.
